Where a protein sequence is shown, tags need not be part of it.
System: T1, B5RBP3 (StLSH10) (Solanum tuberosum (potato))
T1 sequence (looked up): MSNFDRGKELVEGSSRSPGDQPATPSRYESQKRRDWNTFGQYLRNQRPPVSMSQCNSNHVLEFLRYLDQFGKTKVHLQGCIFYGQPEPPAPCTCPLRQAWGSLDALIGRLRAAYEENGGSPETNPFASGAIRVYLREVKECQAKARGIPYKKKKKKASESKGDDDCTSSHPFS
Assay: EMSA
Conditions: shift with protein as low as 30 nM, 5 fmol probe; Light Shift Chemiluminescent RNA EMSA kit binding buffer (Pierce; composition, salt and pH not given), 5 fmol biotin RNA, on ice 45 min; recombinant protein; residues 1-173; protein details: His (pET-28a); label: biotin-11-UTP, internal; probe letters rebuilt from the primers and the genome

GGGAGAAUACCAGAAAGUCUCGUAUUGAUAGCUGAAAAGAUAAAAGGAAGUUAGGGAUACUCUUAUAUUGUGUGAGGCCUUCUGGCCCAAGUCGGAGGACCCAAUUUGAUACAACCUAUCAUAGGAGAAAAGAAGUGGAGACAAAAUUAAAGUAACAAAAUUUUAAAGCACACUUUCUAGUAUAUAUACUUCUUUUUUUUAUAGUAUAGAAAAGAAGAGAUUUUGUGCUUUAGUGUAUAGAUAGAGUCUACUUAGUAUAGGUUAUACUUCUAGUUCCUUGAGAAGAUUGAUACAACUAGUAGUAUUUUUUUUCUUUCUGGGUUGGCUUGGAGUACUAUUUUAAGUUAAUAUGGAAACUAGCUAUAGUAUAUGUUGUAAAGUUGUGAUAUUGUUCCUCUCAAUUUGCAUAUAAUUUGAAAUAUUUUGUACCUACUAGCUAGUCUCUAAAUUAUGUUUCCAUUGCUUGUAAUUGCAAUUUUAUUUGAAUUUUGUGCUAUCAUUAUUAGAUUAGCCCCGGGCUG [StBEL5 full-length 3' UTR]
binding result: binds

From article PMC3427875
